Consider one molecule from US20150166671A1 (CHILDREN S MEDICAL CENTER, published 2015).

Results are given in words; binding and its absence hold for the method and conditions named. In cells and extracts the contact can be indirect. Binding can be weak; no strength is given. Tags and fused reporters may be left off the sequences shown.

The target of this assay is Wnt5a (Homo sapiens (Human)). Description: co-immunoprecipitation from CM with an anti-FLAG antibody, Western blotting.

B1: TIKI2N-FLAG-6xHIS (enzyme, not shown: small tags and cut ends)
chain: RPQPPDGGQCRPPGSQRDLNSFLWTIRRDPPAYLFGTIHVPYTRVWDFIPDNSKAAFQASTRVYFELDLTDPYTISALASCQLLPHGENLQDVLPHELYWRLKRHLDYVKLMMPSWMTPAQRGKGLYADYLFNAIAGNWERKRPVWVMLMVNSLTERDVRFRGVPVLDLYLAQQAEKMKKTTGAVEQVEEQCHPLNNGLNFSQVLFALNQTLLQQESVRAGSLQASYTTEDLIKHYNCGDLSAVIFNHDTSQLPNFINTTLPPHEQVTAQEIDSYFRQELIYKRNERMGKRVMALLRENEDKICFFAFGAGHFLGNNTVIDILRQAGLEVDHTPAGQAIHSPAPQSPAPSPEGTSTSPAPVTPAAAVPEAPSVTPTAPPEDEDPALSPHLLLPDSLSQLEEFGRQRKWHKRQSTHQRPRQFNDLWVRIEDSTTASPPPLPLQPTHSSGTAKPPFQLSDQLQQQDPPG
On to B1, for which the binding result was “binds”.
